Measured values from patent publication US7875261B2, “Fluorinated resorufin compounds and their application” (Life Technologies Corporation, priority 2003, dated 2011).
Some results were stated once for a whole list of compounds, not compound by compound.

Test: Photostability study (continuous irradiation in a spectrofluorimeter)
Format: physicochemical
Conditions: irradiated at 560 nm for 30 minutes, pH 9
Method: For example, solutions of each were matched by optical density (0.03 at 560 nm in aqueous buffer at pH 9), then continuously irradiated in a spectrofluorimeter at 560 nm for 30 minutes. Over the duration of the experiment, resorufin photobleached to a greater extent than any of the fluorinated analogs.

Compound	Photostability compared with unsubstituted resorufin
O=c1ccc2nc3ccc(O)c(F)c3oc-2c1 [Compound 6]	unexpectedly improved photostability over unsubstituted resorufin
O=c1ccc2nc3cc(F)c(O)cc3oc-2c1 [Compound 7]	unexpectedly improved photostability over unsubstituted resorufin
O=c1ccc2nc3cc(F)c(O)c(F)c3oc-2c1 [Compound 5]	unexpectedly improved photostability over unsubstituted resorufin
O=c1ccc2nc3c(F)cc(O)cc3oc-2c1 [Compound 8]	unexpectedly improved photostability over unsubstituted resorufin
O=c1ccc2nc3c(F)c(F)c(O)c(F)c3oc-2c1 [Compound 9]	unexpectedly improved photostability over unsubstituted resorufin
